{"sequences": {"note": "Protein sequences, listed by entry. Tags and fused reporters are not part of them. Lines headed by an entry give the natural chain unless they say otherwise; changes in a name come on top. Chains listed by the source or under a name are the forms on record and can include a tag or linker.", "Psip1/p52 (endogenous) (mouse (endogenous in NIH 3T3 and MEFs)) (Q99JF8, form named)": "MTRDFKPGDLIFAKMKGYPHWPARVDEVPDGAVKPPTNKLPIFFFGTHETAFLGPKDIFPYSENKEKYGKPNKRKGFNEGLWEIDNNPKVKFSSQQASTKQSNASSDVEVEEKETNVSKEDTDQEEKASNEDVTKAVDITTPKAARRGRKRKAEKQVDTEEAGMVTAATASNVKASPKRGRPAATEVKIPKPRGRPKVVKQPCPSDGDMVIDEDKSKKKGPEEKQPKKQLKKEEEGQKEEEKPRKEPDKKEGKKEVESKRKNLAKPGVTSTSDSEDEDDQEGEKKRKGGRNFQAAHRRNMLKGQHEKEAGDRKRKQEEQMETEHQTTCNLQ"}, "source": "paper PMC3355077", "binders": {"B1": {"name": "Srsf5 (protein, UniProt O35326 1-269)", "chain": "MSGCRVFIGRLNPAAREKDVERFFKGYGRIRDIDLKRGFGFVEFEDPRDADDAVYELDGKELCSERVTIEHARARSRGGRGRGRYSDRFSSRRPRNDRRNAPPVRTENRLIVENLSSRVSWQDLKDFMRQAGEVTFADAHRPKLNEGVVEFASYGDLKNAIEKLSGKEINGRKIKLIEGSKRHRSRSRSRSRTRSSSRSRSRSRSRRSKSYSRSRSRSRSRSKSRSGSRSPVPEKSQKRGSSSRSKSPASVDRQRSRSRSRSRSVDSGN"}, "B2": {"name": "Mybbp1A (protein, UniProt Q7TPV4 1-1344)", "chain": "MAEMKSPTKAEPATPAEAAQSDRHSLLEHSREFLDFFWDIAKPDQETRLRATEKLLEYLRTRPNDSEMKYALKRLITGLGVGREAARPCYSLALAQLLQSFEDIPLCDILDQIQEKYSLQAMNKAMMRPSLFANLFGVLALFQSGRLVKDKEALMKSVQLLKILSQHPNHLQGQPIKALVDILSEVPESMFQEILPKVLKGNMKVILRSPKYLELFLLAKQRVPTKLESLMGSVDLFSEDNIPSLVNILKVAANSVKKEHKLPNVALDLLRLALKESRFELFWKKVLEEGLLKNPSWTSSYMCFRLLGASLPLLSEEQLQLVMRGDLIRHFGENMVISKPQNLFKIIPEISTYVGTFLEGCQDDPKRQLTMMVAFTTITNQGLPVMPTFWRVTRFLNAEALQSYVAWLRDMFLQPDLNSLVDFSTANQKRAQDASLNVPERAVFRLRKWIIHRLVSLVDHLHLEKDEAVVEQIARFCLFHAFFKTKKATPQIPETKQHFSFPLDDRNRGVFVSAFFSLLQTLSVKFRQTPDLAENGKPWTYRLVQLADMLLNHNRNVTSVTSLTTQQRQAWDQMMSTLKELEARSSETRAIAFQHLLLLVGLHIFKSPAESCDVLGDIQTCIKKSMEQNPRRSRSRAKASQEPVWVEVMVEILLSLLAQPSNLMRQVVRSVFGHICPHLTPRCLQLILAVLSPVTNEDEDDNVVVTDDADEKQLQHGEDEDSDNEDNKNSESDMDSEDGEESEEEDRDKDVDPGFRQQLMEVLKAGNALGGVDNEEEEELGDEAMMALDQNLASLFKEQKMRIQARNEEKNKLQKEKKLRRDFQIRALDLIEVLVTKQPEHPLILELLEPLLNVIQHSMRSKGSTKQEQDLLHKTARIFMHHLCRARRYCHEVGPCAEALHAQVERLVQQAGSQADASVALYYFNASLYLLRVLKGNTNKRHQDGHKLHGADTEDSEDQAANCLDLDFVTRVYSASLESLLTKRNSSLTVPMFLSLFSRYPVICKNLLPVLAQHVAGPSRPRHQAQACLMLQKTLSARELRVCFEDPEWEQLITQLLGKATQTLQTLGEAQSKGEHQKELSILELLNTLLRTVNHEKLSVDLTAPLGVLQSKQQKLQQSLQQGNHSSGSNRLYDLYWQAMRMLGVQRPKSEKKNAKDIPSDTQSPVSTKRKKKGFLPETKKRKKLKSEGTTPEKNAASQQDAVTEGAMPAATGKDQPPSTGKKKRKRVKASTPSQVNGITGAKSPAPSNPTLSPSTPAKTPKLQKKKEKLSQVNGATPVSPIEPESKKHHQEALSTKEVIRKSPHPQSALPKKRARLSLVSRSPSLLQSGVKKRRVASRRVQTP"}, "B3": {"name": "AATF (protein, UniProt Q9JKX4 1-526)", "chain": "MAAPQPLALQLEQLLNPRPREADPEADPEEATRARVIDRFDEGEEEKDDLAVSSIRKLAPVSLLDTDKRYSGKTTSRKAWKEDHWEQALPSSSDNEASDEGGSEDGDSEGLGLEEISEDVDEDLEDNKISDEGGSEDGDSEGLGLEEFSEDVEEDLEGEDEEDREEDRNSEDDGVVAAFSSVKVSEEVEKGRAVKNQIALWDQLLEGRIKLQKALLTTNQLPQPDVFPVFKDKGGPEFASALKNSHKALKALLRSLVDLQEELLFQYPDTRHIVNGAKPNTESEEISSEDDELVGEKKKQRKAPPKRKLEMEDYPSFMAKRFADFTIYRNHTLQKWHDKTKLASGKLGKGFGAFERSILTQIDHIMMDKERLLRRTQTKRSAYRVLGKPEPVPEPVAETLPGEPETLPQGPANAHLRDLDEEIFDDDDFYHQLLRELIERKTSSLDPNDQVAMGRQWLAIQKLRSKIRKKVDRKASKGRKLRFHVLSKLLSFMAPIDHTAMSDDARTELFRSLFGQLNPPDADRGK"}, "B4": {"name": "LAS1L (protein, UniProt A2BE28 1-776)", "chain": "MDRVWRAWDGQSFKENQPESPSARGIVVSWLSRAEWEQVTVYLFCDDHKLQQYALNRITVWRSRLGNELPLAVASTADLVRCKLIDAAGTLGTDELRLLYGMALVRFVNLISERKTKCSNLPLKYLAQEVNIPDWIVELRHNLTHKKMPHINECRRGCYFVLNWLQKTYWSRQLEGSLKETWELDEDQLDAEDPEEEEREIIADDVLEEIPEPQDDDKDEELAVEDDANTKGNEEVASHPEPSSRHKELYEKARELLVSYEEEQFKVLEKHRHLLQAIKVWNNLSPRVQCILEELKSISWENRDAVLDAFLDDGFLIPTFEQLAALQIEYEDGQTEVQKGEVTEPNSHKNIDLNEVLVPKPFSQFWQPLLRGLHSQTFTQALLERMFSELSTVGSTGIRPTYILRWTVELIVANTKTGRNARRFSASQWEARKSWRLFNCSATLDWPQVIESCLGSPCWASPQLLQVVFKAMGQVLPDEEQEKLLRVCSIYTQNGENGLAKAIEGSSSSSTGKAPYTLDTLHEDLQPPGTNCESEESIQQKEQGNLKDVKQEEKKENEEEEKEEEEMEEEEEEEEEEKEEEEEEQEQEEHQEEEQEEEEEEENQKVFQDQMEADVEESDDVEEEEEVDDEEEDEDDDYDDDEEEDRMEVGAFSLAQGSSVFENTRTTSRKREALQGSAWQVSSEDVRWGTFPLGRLPGQTEDPAELMLDNYDTMYLLDQPVIEHRLEPQKSKSSTLSLCCGGSNTNSSSSSSSGNMEGLLWNQGQMHGLKAGLQLF"}, "B5": {"name": "Srrm 1 (protein, UniProt Q52KI8 1-946)", "chain": "MDAGFFRGTSAEQDNRFSNKQKKLLKQLKFAECLEKKVDMSKVNLEVIKPWITKRVTEILGFEDDVVIEFIFNQLEVKNPDSKMMQINLTGFLNGKNAREFMGELWPLLLSAQENIAGIPSAFLELKKEEIKQRQIEQEKLASLKKQDEDKDKRDKEEKESSREKRERSRSPRRRKSRSPSPRRRSSPVRRERKRSHSRSPRHRTKSRSPSPAPEKKEKSPELPEPSVRMKDSSVQEATSTSDILKAPKPEPVPEPKEPSPEKNSKKEKEKTRPRSRSRSKSRSRTRSRSPSHTRPRRRHRSRSRSYSPRRRPSPRRRPSPRRRTPPRRMPPPPRHRRSRSPGRRRRRSSASLSGSSSSSSSSRSRSPPKKPPKRTSSPPRKTRRLSPSASPPRRRHRPSSPATPPPKTRHSPTPQQSNRTRKSRVSVSPGRTSGKVTKHKGTEKRESPSPAPKPRKVELSESEEDKGSKMAAADSVQQRRQYRRQNQQSSSDSGSSSTSEDERPKRSHVKNGEVGRRRRHSPSRSASPSPRKRQKETSPRMQMGKRWQSPVTKSSRRRRSPSPPPARRRRSPSPAPPPPPPPPPPRRRRSPTPPPRRRTPSPPPRRRSPSPRRYSPPIQRRYSPSPPPKRRTASPPPPPKRRASPSPPPKRRVSHSPPPKQRSPTVTKRRSPSLSSKHRKGSSPGRSTREARSPQPNKRHSPSPRPRAPQTSSPPPVRRGASASPQGRQSPSPSTRPIRRVSRTPEPKKIKKTAMATQRNIRRVSKSPKADSLSRAASPSPQSVRRVSSSRSVSGSPEPAAKKPPAPPSPVQSQSPSTNWSPAVPAKKAKSPTPSLSPARNSDQEGGGKKKKKKKDKKHKKDKKHKKHKKHKKEKAVTIATPATAAPAAVSAATTTSAQEEPAAAPEPRKETESEAEDDNLDDLERHLREKALRSMRKAQVSPQS"}, "B6": {"name": "Srsf7 (protein, UniProt Q8BL97 1-267)", "chain": "MRSSARGRPLQAATAFFLSLFFFLRRFERGFWLWGGDSETKVYVGNLGTGAGKGELERAFSYYGPLRTVWIARNPPGFAFVEFEDPRDAEDAVRGLDGKVICGSRVRVELSTGMPRRSRFDRPPARRPFDPNDRCYECGEKGHYAYDCHRYSRRRRSRSRSRSHSRSRGRRYSRSRSRSRGRRSRSASPRRSRSVSLRRSRSASLRRSRSGSIIGSRYFQSRSRSRSRSRSISRPRSSRSKSRSPSPKRSRSPSGSPHRSASPERMD"}}, "note": "Results are given in words; binding and its absence hold for the method and conditions named. Binding seen in cells or lysates may run through a third protein. A yes stands for co-enrichment or nearness to the bait. Other partners may have been found.", "data": [{"molecular_target": "Psip1/p52 (endogenous) (mouse (endogenous in NIH 3T3 and MEFs)) (UniProt Q99JF8)", "test": "affinity purification with mass spectrometry; A300-847 IP from wild-type MEF nuclear extract; gel region of 25-40 kDa analysed by mass spectrometry", "values": [{"binder": "B1", "binding": "binds"}]}, {"molecular_target": "Psip1/p52 (endogenous) (mouse (endogenous in NIH 3T3 and MEFs)) (UniProt Q99JF8)", "test": "affinity purification with mass spectrometry; A300-847 IP from NIH 3T3 nuclear extract, washes with 200 mM KCl; gel bands analysed by MS/MS (Mascot)", "values": [{"binder": "B2", "binding": "binds"}, {"binder": "B3", "binding": "binds"}, {"binder": "B4", "binding": "binds"}, {"binder": "B5", "binding": "binds"}, {"binder": "B1", "binding": "binds"}, {"binder": "B6", "binding": "binds"}]}]}
